# In patent US20230149358A1, “COMBINATION CANCER THERAPY WITH PENTAAZA MACROCYCLIC RING COMPLEX AND HORMONE THERAPY AGENT” (Galera Labs, LLC, priority 2020, published 2023):
# At least one compound was matched to its structure with a doubt left.
# Test system: MCF7-MnSOD^K68Q cells
# Assay: Clonogenic cell survival, MCF7-MnSOD^K68Q cells
# Type: cell-based, human
# Conditions: Palb at 0.5 μM
# Protocol: FIGS. 25a-25b show clonogenic cell survival studies in MCF7-MnSOD^K68Q cells exposed to either: Fulv at 100 nM (in FIG. 25a); or Palb at 0.5 μM (in FIG. 25b) using standard methods. […] Error bars are ±1 SEM. Experiments in triplicate. *** p<0.001.
# Clonogenic cell survival assay. For the clonogenic survival analysis, exponentially growing cells were replated using appropriate dilutions, and clonogenic survival was evaluated after 14 days in regular growth medium. Cells were stained with crystal violet, and colonies of >50 cells were counted and utilized to calculate clonogenic survival^46.
# To evaluate clonogenic cell survival by testing cell growth at low density, 500 exponentially growing cells were plated in triplicate in 6-well plates using serial dilution, and the growth of the cells was examined throughout 14 days in regular growth medium. Cells were fixed with 70% ethanol for 5 minutes and then stained with 0.5% crystal violet (in 25% methanol) for 20 minutes. Photos of stained plates were taken, and colonies of more than 50 cells were counted and used to calculate clonogenic survival.
smiles,measurement,value
"CC(=O)c1c(C)c2cnc(Nc3ccc(N4CCNCC4)cn3)nc2n(C2CCCC2)c1=O [Palb, Palbociclib]","clonogenic cell survival, resistance versus MCF7-MnSOD^WT",exhibited resistance
